Holding throughout (experiment): protein microarray (ProtoArray v5.0), streptavidin-Alexa Fluor 647
What all share (conditions): 3'-biotin; 20 mM Tris (pH 7.5), 5 mM MgCl2, 100 mM KCl, 0.1% Tween-20, A/T-rich and random oligonucleotide blockers; temperature not stated; high values mean tight binding

Experiment [1] concerns GPR108 (human).
In experiment [2] the test system is GPR15 (human).
The subject of experiment [3] is GPR172B (human).
In experiment [4] the test system is GPRC5C (human).
Experiment [5] relates to GPS2 (human).
In experiment [6] the test system is GPSM3 (human).
In experiment [7] the test system is GPT (human).
Experiment [8] has as its system GPX1 (human).
In experiment [9] the test system is GPX2 (human).
The test system of experiment [10] is GPX7 (human).

The list shows a part of the results.

As for “GGGAGGCTGAGGCAGG [G4-1 biotinylated (PQS2)]”, the binding signal in experiment [1] was -0.345 z-score; in [2], -0.313 z-score; in [3] it was -0.319 z-score; in experiment [4], -0.328 z-score; in [5] it was -0.321 z-score; in experiment [6] it was -0.334 z-score. Besides, the binding signal is -0.314 z-score in experiment [7], -0.338 z-score in [8], -0.294 z-score in [9] and -0.31 z-score in [10].

For the origin of these results see publication PMC5996148.
